Assay results as given in article PMC7655802.
For at least one entry, the source does not settle the construct or the ends of the probe. For some assays here: The comparison behind a weaker result is the experiment's own reference, which may not be listed here. For some assays here: The direction of at least one scale is not stated here.

By UniProt entry, the sequences of proteins in these tests, tags left out. Residues count along the entry.
UniProt P0A7G6, 2-353: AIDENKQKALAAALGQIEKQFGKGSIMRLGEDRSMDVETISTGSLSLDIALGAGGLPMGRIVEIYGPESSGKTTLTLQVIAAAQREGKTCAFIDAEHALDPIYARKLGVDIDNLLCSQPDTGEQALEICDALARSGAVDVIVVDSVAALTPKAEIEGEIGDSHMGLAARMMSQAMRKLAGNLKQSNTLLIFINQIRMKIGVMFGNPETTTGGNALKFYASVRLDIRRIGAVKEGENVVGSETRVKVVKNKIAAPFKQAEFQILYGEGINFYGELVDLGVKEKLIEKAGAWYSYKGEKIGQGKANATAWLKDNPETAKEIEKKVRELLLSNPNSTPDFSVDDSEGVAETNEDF

Experiments:
[1] = biological target: RecA (UniProt P0A7G6); assay: EMSA (glutaraldehyde-fixed); conditions: pH 8, 1 mM ATP, 10 mM Mg2+; EMSA: 50 mM phosphate/citrate pH 5-8, 50 mM NaCl, 10 mM MgCl2, 1 mM ATP, 25 C, 5 min, then 0.125% glutaraldehyde; commercial …; label: 5'-FITC; single-stranded DNA; scale: reference
[2] = biological target: RecA (UniProt P0A7G6); assay: stopped-flow fluorescence; conditions: pH 8, 1 mM ATP, 10 mM Mg2+, half-time >3000 times that at pH 5 (several minutes); stopped-flow: 20 nM dT79, 1 mM ATP, 10 mM MgCl2; commercial protein; label: 5'-Cy3; single-stranded DNA

Row | Sequence | binding signal [1] | binding result [2]
1 | AAATCAATCTAAAGTATATATGAGTAAACTTGGTCTGACAGTTACCAATGCTTAATCAGTGAGGCACCTATCTCAGCGATCTGTCTATTT [90mer oligonucleotide] | 1 | 
2 | TTTTTTTTTTTTTTTTTTTTTTTTTTTTTTTTTTTTTTTTTTTTTTTTTTTTTTTTTTTTTTTTTTTTTTTTTTTTTTT [dT79] |  | binds more weakly
